Measurements published in article PMC9106302.

Sequences of proteins named here, by UniProt entry; tags and fusion partners are left off. A change or cut given only in a name is not applied to a line headed by its entry.
UniProt Q7K180: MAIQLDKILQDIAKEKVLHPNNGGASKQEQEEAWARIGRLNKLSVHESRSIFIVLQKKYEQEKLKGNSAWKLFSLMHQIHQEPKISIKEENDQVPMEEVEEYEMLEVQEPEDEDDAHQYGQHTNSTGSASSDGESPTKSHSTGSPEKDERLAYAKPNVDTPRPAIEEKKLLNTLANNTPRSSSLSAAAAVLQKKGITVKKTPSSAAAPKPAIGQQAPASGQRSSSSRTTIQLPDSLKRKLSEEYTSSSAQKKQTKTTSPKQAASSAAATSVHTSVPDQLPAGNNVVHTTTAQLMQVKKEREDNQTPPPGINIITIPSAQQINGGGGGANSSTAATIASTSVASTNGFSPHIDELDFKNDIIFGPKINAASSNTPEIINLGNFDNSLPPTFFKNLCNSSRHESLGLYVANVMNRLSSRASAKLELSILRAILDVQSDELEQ

Key:
Experiment in all cases: affinity purification with mass spectrometry; purified GFP-3C-bait-3C-His6 immobilised on GFP binder beads, incubated with 6 mg Drosophila embryo nuclear extract in IP buffer (50 mM tris-Cl pH 7.5, 150 mM potassium acetate, 2 mM MgCl2, 10% glycerol, 0.1 mM DTT, 0.2% IGEPAL), 3 hours at 4°C; eluted with 3C protease; enrichment over a GFP-tagged Xenopus Nse I control bait; biological duplicates; only the target purified
[1] = biological target: T1, GFP-tagged CTCF[1-293] (N terminus) (GFP-3C-bait-3C-His6) (D. melanogaster) (UniProt Q9VS55)
T1 sequence: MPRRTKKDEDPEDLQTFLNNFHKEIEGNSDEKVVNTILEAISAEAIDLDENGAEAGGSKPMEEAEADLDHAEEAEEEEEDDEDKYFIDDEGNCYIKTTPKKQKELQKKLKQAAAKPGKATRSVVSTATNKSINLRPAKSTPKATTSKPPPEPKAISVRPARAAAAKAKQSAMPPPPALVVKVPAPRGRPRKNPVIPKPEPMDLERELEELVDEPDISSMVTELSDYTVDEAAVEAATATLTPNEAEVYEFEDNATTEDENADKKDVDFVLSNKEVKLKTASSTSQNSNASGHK

[2] = biological target: T2, GFP-tagged Chro[613-926] (C terminus) (GFP-3C-bait-3C-His6) (D. melanogaster) (UniProt Q86BS3)
T2 sequence: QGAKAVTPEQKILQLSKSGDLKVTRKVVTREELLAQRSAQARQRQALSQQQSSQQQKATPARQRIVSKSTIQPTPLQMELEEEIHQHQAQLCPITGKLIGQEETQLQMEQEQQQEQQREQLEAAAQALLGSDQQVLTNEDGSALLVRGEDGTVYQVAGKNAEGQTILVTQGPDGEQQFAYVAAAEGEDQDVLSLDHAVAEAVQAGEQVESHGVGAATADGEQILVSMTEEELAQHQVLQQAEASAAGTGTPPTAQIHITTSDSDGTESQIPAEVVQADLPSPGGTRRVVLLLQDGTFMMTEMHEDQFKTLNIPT

[3] = biological target: T3, GFP-tagged Su(Hw)[1-219] (N terminus) (GFP-3C-bait-3C-His6) (D. melanogaster) (UniProt P08970)
T3 sequence: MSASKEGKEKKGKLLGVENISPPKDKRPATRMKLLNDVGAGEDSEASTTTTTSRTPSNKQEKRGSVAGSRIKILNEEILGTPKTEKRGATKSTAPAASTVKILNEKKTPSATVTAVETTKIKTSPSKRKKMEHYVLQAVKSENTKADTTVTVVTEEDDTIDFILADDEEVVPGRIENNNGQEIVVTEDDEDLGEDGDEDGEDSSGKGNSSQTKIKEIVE

[4] = biological target: T4, GFP-tagged full-length Cp190[1-1096] bait (GFP-3C-Cp190-3C-His6) (D. melanogaster) (UniProt Q24478)
T4 sequence: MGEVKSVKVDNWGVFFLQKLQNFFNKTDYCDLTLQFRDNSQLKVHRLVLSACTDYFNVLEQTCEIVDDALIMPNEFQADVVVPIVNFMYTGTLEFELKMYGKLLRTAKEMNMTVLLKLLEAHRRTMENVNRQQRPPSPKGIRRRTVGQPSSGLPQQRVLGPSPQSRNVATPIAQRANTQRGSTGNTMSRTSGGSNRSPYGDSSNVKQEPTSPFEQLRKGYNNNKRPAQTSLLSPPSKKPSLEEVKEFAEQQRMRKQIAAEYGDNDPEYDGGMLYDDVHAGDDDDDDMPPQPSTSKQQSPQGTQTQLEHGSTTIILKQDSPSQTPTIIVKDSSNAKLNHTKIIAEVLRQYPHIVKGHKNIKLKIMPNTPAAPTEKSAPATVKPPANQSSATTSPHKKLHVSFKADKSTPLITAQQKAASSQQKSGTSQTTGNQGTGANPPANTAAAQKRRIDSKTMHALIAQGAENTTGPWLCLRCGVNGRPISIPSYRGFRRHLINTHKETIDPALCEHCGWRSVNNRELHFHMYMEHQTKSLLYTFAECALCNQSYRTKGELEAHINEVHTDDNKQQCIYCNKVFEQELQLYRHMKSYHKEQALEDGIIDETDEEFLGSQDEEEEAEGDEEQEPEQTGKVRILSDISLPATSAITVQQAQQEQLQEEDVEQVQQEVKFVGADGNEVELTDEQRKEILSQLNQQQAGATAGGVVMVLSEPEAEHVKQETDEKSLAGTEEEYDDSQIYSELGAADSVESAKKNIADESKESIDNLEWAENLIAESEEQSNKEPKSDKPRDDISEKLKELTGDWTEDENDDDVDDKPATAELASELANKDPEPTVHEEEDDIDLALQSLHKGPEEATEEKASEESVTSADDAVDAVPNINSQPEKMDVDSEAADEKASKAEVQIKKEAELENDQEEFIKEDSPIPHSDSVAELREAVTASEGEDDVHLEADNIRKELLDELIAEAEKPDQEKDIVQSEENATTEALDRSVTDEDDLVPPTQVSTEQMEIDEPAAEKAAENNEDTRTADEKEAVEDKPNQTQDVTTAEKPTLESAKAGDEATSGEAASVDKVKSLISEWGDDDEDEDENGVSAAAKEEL

Measured: binding

CG1737, endogenous
binds: all assays above

Cp60, endogenous (from UniProt Q7K180)
binds: all assays above

These are yes or no findings as the source states them, for the method shown. In cells and extracts the contact can be indirect. Here binding means that the protein was enriched with, or labelled near, the bait; the list need not be complete. Where a sequence is shown, tags or fusion partners need not be part of it.
